Taken from: PubChem BioAssay AID1508588 (Peter MacCallum Cancer Centre, 2020)
The deposit covers about 18,000 reagents; this is a random part of them. 790 of them (4.4%) were called active. 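Calls rest on a combination of fold-change classes in drug and vehicle arms, not all shown here.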

- Screen: 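Genome-wide search for knock-downs that heighten vemurafenib action in melanoma cells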 (primary screen)
- System: human WM266.4 melanoma cells (BRAF V600 mutant)
- Reagent: siRNA pool against human genes, 40 nM
- Timing: 96 h from transfection to read-out
- Challenge: vemurafenib 300 nM (about IC25), added 48 h after transfection, for 48 h; comparison arm got DMSO vehicle only
- Read-out: 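Cell gain (DAPI nuclei at end minus before drug, mean of two replicates) and medium lactate by absorbance per cell, both as ratio to non-targeting siRNA, also grouped into fold-change classes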
- Direction: cell gain with vemurafenib: higher = more cell gain than with non-targeting siRNA; lactate per cell with vemurafenib: higher = more lactate made per cell
- Call rule: 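a knock-down counts as enhancing when its fold-change classes with vehicle and with vemurafenib, taken together, show a stronger drug effect on cell gain or lactate per cell; exact class pairs not stated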
- Meaning of the calls: active = enhances vemurafenib effect; inactive = no enhancement seen

| gene knocked down | cell gain with vemurafenib | lactate per cell with vemurafenib | Call |
| --- | --- | --- | --- |
| TIGD5 (tigger transposable element derived 5) | 0.55 | 0.95 | inactive |
| KRT40 (keratin 40) | 0.51 | 0.52 | inactive |
| CA5A (carbonic anhydrase 5A) | 0.51 | 1.07 | inactive |
| RIOX2 (ribosomal oxygenase 2) | 0.9 | 1.4 | inactive |
| OR6X1 (olfactory receptor family 6 subfamily X member 1) | 0.2 | 1.69 | inactive |
| JAKMIP2 (janus kinase and microtubule interacting protein 2) | 0.69 | 1.05 | inactive |
| SEC16A (SEC16 homolog A, endoplasmic reticulum export factor) | 0.55 | 1.74 | inactive |
| SMC2 (structural maintenance of chromosomes 2) | 0.36 | 1.18 | inactive |
| BARHL2 (BarH like homeobox 2) | 1.22 | 0.86 | inactive |
| USP5 (ubiquitin specific peptidase 5) | 0.64 | 1.1 | inactive |
| ATG9B (autophagy related 9B) | 0.98 | 1.27 | inactive |
| HOXD11 (homeobox D11) | 0.02 | 2.69 | inactive |
| IAH1 (isoamyl acetate hydrolyzing esterase 1 (putative)) | 0.4 | 0.8 | inactive |
| CD46 (CD46 molecule) | 0.65 | 0.56 | inactive |
| CHM (CHM Rab escort protein) | 0.72 | 0.34 | inactive |
| ZNF496 (zinc finger protein 496) | 0.65 | 1.17 | inactive |
| TPT1P8 (TPT1 pseudogene 8) | 0.61 | 0.92 | inactive |
| SGO2 (shugoshin 2) | 0.69 | 0.6 | inactive |
| SYNGR4 (synaptogyrin 4) | 0.14 | 0.98 | inactive |
| STX10 (syntaxin 10) | 0.52 | 1.79 | inactive |
| FBXO33 (F-box protein 33) | 0.72 | 0.71 | inactive |
| TYRP1 (tyrosinase related protein 1) | 1.14 | 0.55 | inactive |
| DPEP3 (dipeptidase 3) | 0.39 | 0.97 | inactive |
| BRINP2 (BMP/retinoic acid inducible neural specific 2) | 0.12 | 1.4 | inactive |
| TEX19 (testis expressed 19) | 0.35 | 1.1 | inactive |
| CSGALNACT2 (chondroitin sulfate N-acetylgalactosaminyltransferase 2) | 0.44 | 1.16 | inactive |
| TNNI3 (troponin I3, cardiac type) | 0.83 | 0.88 | inactive |
| USP32 (ubiquitin specific peptidase 32) | 0.54 | 0.52 | inactive |
| LGALS2 (galectin 2) | 0.08 | 2.28 | inactive |
| UCP3 (uncoupling protein 3) | 0.9 | 1.11 | inactive |
| EXOC8 (exocyst complex component 8) | 1.21 | 0.88 | inactive |
| MEPE (matrix extracellular phosphoglycoprotein) | 0.53 | 1.36 | inactive |
| KDELR1 (KDEL endoplasmic reticulum protein retention receptor 1) | 0.43 | 0.6 | inactive |
| MAMDC4 (MAM domain containing 4) | 0.85 | 2.13 | inactive |
| NSMAF (neutral sphingomyelinase activation associated factor) | 0.66 | 1.28 | inactive |
| NUDT17 (nudix hydrolase 17) | 0.82 | 0.73 | inactive |
| TMEM229B (transmembrane protein 229B) | 0.6 | 1.21 | inactive |
| SMUG1 | 0.85 | 1.04 | inactive |
| BARD1 (BRCA1 associated RING domain 1) | 1.08 | 0.69 | inactive |
| SCARF2 (scavenger receptor class F member 2) | 0.46 | 0.83 | inactive |
| EHHADH (enoyl-CoA hydratase and 3-hydroxyacyl CoA dehydrogenase) | 0.67 | 1.06 | inactive |
| DAPL1 (death associated protein like 1) | 0.69 | 0.5 | inactive |
| PLEKHG6 (pleckstrin homology and RhoGEF domain containing G6) | 0.76 | 0.98 | inactive |
| SLC25A26 | 0.58 | 1.02 | inactive |
| TMEM138 (transmembrane protein 138) | 0.21 | 0.56 | inactive |
| TSTD2 (thiosulfate sulfurtransferase like domain containing 2) | 0.7 | 1.5 | inactive |
| CEP170 (centrosomal protein 170) | 0.49 | 0.22 | inactive |
| C9orf152 (chromosome 9 open reading frame 152) | 0.82 | 0.63 | inactive |
| WDR86 (WD repeat domain 86) | 0.99 | 0.7 | inactive |
| ZPLD1 (zona pellucida like domain containing 1) | 0.8 | 0.44 | inactive |
| MCMBP (minichromosome maintenance complex binding protein) | 0.72 | 0.64 | inactive |
| SLC6A20 | 0.71 | 1 | inactive |
| H2AC8 (H2A clustered histone 8) | 0.94 | 0.23 | active |
| ZNRF2 (zinc and ring finger 2) | 0.99 | 0.85 | inactive |
| PLEKHA7 (pleckstrin homology domain containing A7) | 0.22 | 1.6 | inactive |
| CSF1R (colony stimulating factor 1 receptor) | 0.49 | 1.48 | inactive |
| WBP4 (WW domain binding protein 4) | 0.75 | 0.86 | inactive |

Ordered by “cell gain with vemurafenib” (ascending): 3 of the entries above
| gene knocked down | cell gain with vemurafenib | lactate per cell with vemurafenib | Call |
| --- | --- | --- | --- |
| BRINP2 (BMP/retinoic acid inducible neural specific 2) | 0.12 | 1.4 | inactive |
| TEX19 (testis expressed 19) | 0.35 | 1.1 | inactive |
| DPEP3 (dipeptidase 3) | 0.39 | 0.97 | inactive |
